According to publication PMC7819943, “Rice protein-binding microarrays: a tool to detect cis-acting elements near promoter regions in rice”:
The other results are listed elsewhere or left out.

Sequences of proteins named here, by UniProt entry; tags and fusion partners are left off.
UniProt Q0JBA9, entry or part of it: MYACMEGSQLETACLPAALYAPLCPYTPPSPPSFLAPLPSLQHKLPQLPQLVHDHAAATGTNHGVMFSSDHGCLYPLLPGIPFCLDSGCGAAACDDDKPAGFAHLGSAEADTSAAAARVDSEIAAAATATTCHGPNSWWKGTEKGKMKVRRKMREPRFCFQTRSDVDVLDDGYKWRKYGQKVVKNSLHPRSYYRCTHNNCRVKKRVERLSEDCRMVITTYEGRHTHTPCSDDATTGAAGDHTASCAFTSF

What follows are sequences tested against OsWRKY34 (Oryza sativa, UniProt Q0JBA9 1-250) (assay: protein-binding microarray (RPBM); PBS, 2% BSA, 51.3 ng/ul salmon testes DNA, 50 uM zinc acetate, 200 nM TF, 25 C, 1 h; high values mean tight binding). Conditions: protein: recombinant; tags: N-terminal polyhistidine and DsRed monomer fusion (pET32a); label: CyDye5-dUTP incorporated in the synthesized complementary strand; 3' TTTTT single-stranded linker to array surface; dsDNA, one strand shown.
In short: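 An Axon 4000B scanner gave the binding signal as per-feature fluorescence intensity in arbitrary units. This followed washing of a custom Agilent array that had been incubated for 1 h at 25 °C with 200 nM protein in PBS, 2% BSA, salmon testes DNA and 50 µM zinc acetate. The proteins were transcription factors fused at the N-terminus to polyhistidine and DsRed, expressed in E. coli BL21-CodonPlus and purified on Ni–NTA.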
For “CGGTGGGGAGGCCGGGAGGGAGGAGGAGAGAAGAGGAGTGCGGAGTCACCTAGTGCAG”, the binding signal was 9450 fluorescence intensity (a.u.).
With “GTGCTAATAGTTTTCTTTCCTAACTAATTTCATCCTTATTCGGAGTCACCTAGTGCAG” the binding signal was 8580 fluorescence intensity (a.u.).
“GAATTCTAGGGTTTTGCAATTTGTTGGGCTTATTGGGCCTCGGAGTCACCTAGTGCAG” was tested, and the binding signal was 12500 fluorescence intensity (a.u.).
With “GTTTGGTTGGCTGTTCTGCTTGAAATCTTTCAGAATTTTTCGGAGTCACCTAGTGCAG” the binding signal was 8110 fluorescence intensity (a.u.).
With “TTTTATATTCACAGGTGGCCGGCTCTCTTCTGCACACAACCGGAGTCACCTAGTGCAG” the binding signal was 9380 fluorescence intensity (a.u.).
For “TTGATTTTTTGTTGCAAAAGAATATTTTAATTCACTGCAACGGAGTCACCTAGTGCAG”, the binding signal was 24300 fluorescence intensity (a.u.).
For “GTGACCAACCATTCTTTCATCGCACCTCTACGAAATTCATCGGAGTCACCTAGTGCAG”, the binding signal was 11900 fluorescence intensity (a.u.).
“TCTTGCTTTTACCTTTTTTTTTTTTTTTGGCTTCATTCCTCGGAGTCACCTAGTGCAG” was tested, and the binding signal was 8570 fluorescence intensity (a.u.).
With “CCCACACGCGCTCCATGCATCTCCACCACGCTCCATGTGTCGGAGTCACCTAGTGCAG” the binding signal was 11000 fluorescence intensity (a.u.).
“AGTCCCTTTTACACTTGATCTGTTGAACTTTCATTGTGCTCGGAGTCACCTAGTGCAG” was tested, and the binding signal was 9690 fluorescence intensity (a.u.).
“AATTCTCCATTTTATGTACTTTTTCACAGGGATTTTTTTTCGGAGTCACCTAGTGCAG” was tested, and the binding signal was 11500 fluorescence intensity (a.u.).
With “TTACCACACTCAACCTTTACTCCGGATCGGATTGCCTCTCCGGAGTCACCTAGTGCAG” the binding signal was 9160 fluorescence intensity (a.u.).
For “ACGGATCATGTATACTACTACCATGATGATGAGTCATTTTCGGAGTCACCTAGTGCAG”, the binding signal was 8180 fluorescence intensity (a.u.).
With “TCATTCCTATCTTTTAAGTCGTGTTTCTCTATCGTCAATTCGGAGTCACCTAGTGCAG” the binding signal was 9960 fluorescence intensity (a.u.).
In the case of “CTATCATGTTATTGTGTTCTTGCTGCTATTATTTTGACCTCGGAGTCACCTAGTGCAG”, the binding signal is reported as 9220 fluorescence intensity (a.u.).
For “AAGTATCCATCCTTTTTATAGTCTTTGTATTCTGTAATTTCGGAGTCACCTAGTGCAG”, the binding signal was 10600 fluorescence intensity (a.u.).
For “CAGCTCCATCTGCCACCATCCTCTGCATTCCACCGCCGCCCGGAGTCACCTAGTGCAG”, the binding signal was 8990 fluorescence intensity (a.u.).
“ACCAAACAATTTCTTCCTTTCATTACTGTTTGCGGTTTCACGGAGTCACCTAGTGCAG” was tested, and the binding signal was 10900 fluorescence intensity (a.u.).
For “GGTGGTTTTGGATGATAGTTTTGCATATTTTGGAAGCTTACGGAGTCACCTAGTGCAG”, the binding signal was 9620 fluorescence intensity (a.u.).
In the case of “GCCGCCGCCGCCTCCGCCTCCTCTTTGTTTCTCCTCTTAGCGGAGTCACCTAGTGCAG”, the binding signal is reported as 9080 fluorescence intensity (a.u.).
“AATGAGTTGTGGATGATTTTGTTGTTGGTTTTGTTCATTTCGGAGTCACCTAGTGCAG” was tested, and the binding signal was 8140 fluorescence intensity (a.u.).
With “TAGGAAGGAGGTGGTACGTCTCTTGTTTTTGCTTGTTTTTCGGAGTCACCTAGTGCAG” the binding signal was 8910 fluorescence intensity (a.u.).
In the case of “AACCGTCGACACGCGCGCGACCATTCGATCACTCCACGACCGGAGTCACCTAGTGCAG”, the binding signal is reported as 9410 fluorescence intensity (a.u.).
With “ACTTCCAACTTTTTTATCACATCGTTTCAATTTCAACCAACGGAGTCACCTAGTGCAG” the binding signal was 9030 fluorescence intensity (a.u.).
With “CCCCTAAACAGCATACTAGTACTACATCCGTCCCAAAATACGGAGTCACCTAGTGCAG” the binding signal was 8280 fluorescence intensity (a.u.).
“TTTGGTATGTCAGGGCTTGTTTGGTTCAATACCCTATCAACGGAGTCACCTAGTGCAG” was tested, and the binding signal was 10000 fluorescence intensity (a.u.).
With “TACACTCACCACTATAAACACACGCACAAACACATATTAACGGAGTCACCTAGTGCAG” the binding signal was 8490 fluorescence intensity (a.u.).
“TCTGCTCATTAGCTCGAGACCTGGTCAGCTCGCCGCCATGCGGAGTCACCTAGTGCAG” was tested, and the binding signal was 8150 fluorescence intensity (a.u.).
With “ATCACGGGATTACACAGCAAAGTAGCAAAGCTAAATTTTACGGAGTCACCTAGTGCAG” the binding signal was 63700 fluorescence intensity (a.u.).
“CTCTTCTTCTTCTTCTTCTAGGGGCTGTTTGGTTTCCAGGCGGAGTCACCTAGTGCAG” was tested, and the binding signal was 8540 fluorescence intensity (a.u.).
In the case of “ACGATGGCCTAAGTCAGTATTTTGACTATTTTTAAATAAACGGAGTCACCTAGTGCAG”, the binding signal is reported as 8330 fluorescence intensity (a.u.).
For “TCGCAACACCAGATACCCCTCTTCGCTCTTGGATTTCTTTCGGAGTCACCTAGTGCAG”, the binding signal was 9310 fluorescence intensity (a.u.).
“GAAAAGCCACTAATCTCCAACCTCGTCTACACTTCTCCAACGGAGTCACCTAGTGCAG” was tested, and the binding signal was 8970 fluorescence intensity (a.u.).
“CACTTTTTATTCAGTCACTATCCTTGTGTGCTGTAATTATCGGAGTCACCTAGTGCAG” was tested, and the binding signal was 10700 fluorescence intensity (a.u.).
With “CCCTCCCCTCTGCTTCCGTTCCCTTGGGTTGGGTTGTGTTCGGAGTCACCTAGTGCAG” the binding signal was 8480 fluorescence intensity (a.u.).
For “CCGCTGCCACCGCTCCTCCTAAGCTCGCCCGCCGCATCCGCGGAGTCACCTAGTGCAG”, the binding signal was 8790 fluorescence intensity (a.u.).
With “GCCGTTGTCCGAAGGTTCAGCATATTGCTGACATATTGCCCGGAGTCACCTAGTGCAG” the binding signal was 9380 fluorescence intensity (a.u.).
For “TTGTTGGTAGTCCCTTGCTTCTATATTTCTATTTTACCTTCGGAGTCACCTAGTGCAG”, the binding signal was 11200 fluorescence intensity (a.u.).
For “GCTCTGAACATGGACTGCGCTAATACTACTCCATGCACAACGGAGTCACCTAGTGCAG”, the binding signal was 9240 fluorescence intensity (a.u.).
“CCTCCTGTCACATACAAAAATATCGAATTTTTATACTATCCGGAGTCACCTAGTGCAG” was tested, and the binding signal was 8690 fluorescence intensity (a.u.).
For “TCGACTTTGATTTGTACGATTGATTCCTTGAGTATATGTTCGGAGTCACCTAGTGCAG”, the binding signal was 8540 fluorescence intensity (a.u.).
With “GTTTTGCATTCTTTTGTTCATGACTGTGATGTACACTTGTCGGAGTCACCTAGTGCAG” the binding signal was 9580 fluorescence intensity (a.u.).
